# Counter-ions that a name gives are not always drawn. The list shows a part of the results. Hit calls seldom repeat between salt and free forms of one compound.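 Kinases, fused to nanoluciferase, were expressed in K562 cells; luminescence was measured every 4 h from 2 to 18 h as percent of control (DMSO = 100%, positive control = 0%). A time point is decreased if signal falls significantly (2 sigma). Hits were called by the authors by a rule that is not shown; the count of time points alone does not decide it.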
# The chains behind the UniProt entries cited, without tags or fusion partners. Where a name states a change or a piece, a line headed by the entry shows the natural chain unless it says otherwise.
# UniProt P28482, whole entry: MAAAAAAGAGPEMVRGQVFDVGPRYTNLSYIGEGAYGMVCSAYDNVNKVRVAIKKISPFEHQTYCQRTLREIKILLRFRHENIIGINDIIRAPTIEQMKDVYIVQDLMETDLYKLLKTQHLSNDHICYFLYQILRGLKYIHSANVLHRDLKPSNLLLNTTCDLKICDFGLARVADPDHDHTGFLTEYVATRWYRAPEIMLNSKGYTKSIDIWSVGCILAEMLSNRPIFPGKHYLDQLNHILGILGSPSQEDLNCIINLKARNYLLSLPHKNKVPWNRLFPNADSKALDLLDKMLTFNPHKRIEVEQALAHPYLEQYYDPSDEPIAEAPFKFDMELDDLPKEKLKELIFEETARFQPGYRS
# UniProt P49137, whole entry, looked up: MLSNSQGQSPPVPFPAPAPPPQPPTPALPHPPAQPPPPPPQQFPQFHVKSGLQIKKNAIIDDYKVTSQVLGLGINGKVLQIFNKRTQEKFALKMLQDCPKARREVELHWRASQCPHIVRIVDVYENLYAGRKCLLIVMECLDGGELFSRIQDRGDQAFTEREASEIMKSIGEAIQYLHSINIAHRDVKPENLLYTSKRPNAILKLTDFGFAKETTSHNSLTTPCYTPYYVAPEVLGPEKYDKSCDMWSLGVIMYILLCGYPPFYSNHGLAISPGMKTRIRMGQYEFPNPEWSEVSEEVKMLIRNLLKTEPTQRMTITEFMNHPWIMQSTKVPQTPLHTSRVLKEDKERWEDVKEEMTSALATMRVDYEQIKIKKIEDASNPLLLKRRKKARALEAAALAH
# UniProt Q16620, whole entry, looked up: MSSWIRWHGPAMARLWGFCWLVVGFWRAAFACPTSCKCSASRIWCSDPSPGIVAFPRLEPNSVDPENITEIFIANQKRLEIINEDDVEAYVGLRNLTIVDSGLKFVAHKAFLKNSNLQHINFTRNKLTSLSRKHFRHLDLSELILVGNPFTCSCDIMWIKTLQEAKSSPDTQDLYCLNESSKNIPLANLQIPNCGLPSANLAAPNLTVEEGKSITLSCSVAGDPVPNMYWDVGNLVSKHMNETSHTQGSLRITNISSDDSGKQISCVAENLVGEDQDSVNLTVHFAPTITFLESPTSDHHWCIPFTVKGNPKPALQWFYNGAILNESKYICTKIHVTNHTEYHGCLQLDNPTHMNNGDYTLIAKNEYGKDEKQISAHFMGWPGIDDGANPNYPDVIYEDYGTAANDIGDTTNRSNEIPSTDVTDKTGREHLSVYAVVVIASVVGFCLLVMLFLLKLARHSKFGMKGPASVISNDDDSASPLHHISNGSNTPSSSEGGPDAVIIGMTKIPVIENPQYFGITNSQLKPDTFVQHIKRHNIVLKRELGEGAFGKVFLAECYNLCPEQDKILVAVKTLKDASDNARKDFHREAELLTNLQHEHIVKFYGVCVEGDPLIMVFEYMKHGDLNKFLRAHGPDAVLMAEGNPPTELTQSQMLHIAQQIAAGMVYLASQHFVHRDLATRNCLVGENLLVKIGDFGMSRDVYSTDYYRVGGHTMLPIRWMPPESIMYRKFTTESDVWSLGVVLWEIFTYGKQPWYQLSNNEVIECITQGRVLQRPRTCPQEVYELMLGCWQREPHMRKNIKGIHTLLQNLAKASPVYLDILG
# UniProt Q16288, whole entry, looked up: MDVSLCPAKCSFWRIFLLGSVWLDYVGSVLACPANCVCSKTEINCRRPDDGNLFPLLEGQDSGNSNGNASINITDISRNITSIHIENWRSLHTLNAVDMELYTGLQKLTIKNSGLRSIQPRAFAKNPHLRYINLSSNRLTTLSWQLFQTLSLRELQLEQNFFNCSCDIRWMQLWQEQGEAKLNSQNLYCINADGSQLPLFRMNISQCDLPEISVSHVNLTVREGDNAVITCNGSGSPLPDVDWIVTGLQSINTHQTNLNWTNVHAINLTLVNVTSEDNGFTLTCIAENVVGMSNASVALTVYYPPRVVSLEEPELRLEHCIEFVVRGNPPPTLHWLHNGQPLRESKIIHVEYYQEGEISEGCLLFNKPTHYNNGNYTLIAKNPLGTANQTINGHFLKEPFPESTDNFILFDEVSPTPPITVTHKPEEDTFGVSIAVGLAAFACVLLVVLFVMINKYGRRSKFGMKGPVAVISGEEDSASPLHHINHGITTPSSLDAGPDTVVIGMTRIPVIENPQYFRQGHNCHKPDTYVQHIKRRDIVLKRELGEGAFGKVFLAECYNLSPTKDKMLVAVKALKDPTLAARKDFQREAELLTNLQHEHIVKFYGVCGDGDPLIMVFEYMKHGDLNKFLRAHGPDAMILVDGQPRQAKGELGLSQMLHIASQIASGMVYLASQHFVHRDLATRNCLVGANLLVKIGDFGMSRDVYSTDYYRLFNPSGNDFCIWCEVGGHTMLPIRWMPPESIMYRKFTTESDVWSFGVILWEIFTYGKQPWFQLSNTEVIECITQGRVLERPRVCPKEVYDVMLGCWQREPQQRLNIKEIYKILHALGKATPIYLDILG
# UniProt Q96KB5: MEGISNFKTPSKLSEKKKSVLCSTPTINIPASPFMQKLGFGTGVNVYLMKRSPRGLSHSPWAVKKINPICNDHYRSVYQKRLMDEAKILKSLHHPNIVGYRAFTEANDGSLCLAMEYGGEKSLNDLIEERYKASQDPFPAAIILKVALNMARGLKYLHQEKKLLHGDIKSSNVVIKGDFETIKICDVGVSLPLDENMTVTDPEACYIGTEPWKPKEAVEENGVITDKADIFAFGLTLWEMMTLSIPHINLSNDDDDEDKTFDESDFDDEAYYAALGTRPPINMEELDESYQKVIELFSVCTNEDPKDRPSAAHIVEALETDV
# UniProt P09619, whole entry: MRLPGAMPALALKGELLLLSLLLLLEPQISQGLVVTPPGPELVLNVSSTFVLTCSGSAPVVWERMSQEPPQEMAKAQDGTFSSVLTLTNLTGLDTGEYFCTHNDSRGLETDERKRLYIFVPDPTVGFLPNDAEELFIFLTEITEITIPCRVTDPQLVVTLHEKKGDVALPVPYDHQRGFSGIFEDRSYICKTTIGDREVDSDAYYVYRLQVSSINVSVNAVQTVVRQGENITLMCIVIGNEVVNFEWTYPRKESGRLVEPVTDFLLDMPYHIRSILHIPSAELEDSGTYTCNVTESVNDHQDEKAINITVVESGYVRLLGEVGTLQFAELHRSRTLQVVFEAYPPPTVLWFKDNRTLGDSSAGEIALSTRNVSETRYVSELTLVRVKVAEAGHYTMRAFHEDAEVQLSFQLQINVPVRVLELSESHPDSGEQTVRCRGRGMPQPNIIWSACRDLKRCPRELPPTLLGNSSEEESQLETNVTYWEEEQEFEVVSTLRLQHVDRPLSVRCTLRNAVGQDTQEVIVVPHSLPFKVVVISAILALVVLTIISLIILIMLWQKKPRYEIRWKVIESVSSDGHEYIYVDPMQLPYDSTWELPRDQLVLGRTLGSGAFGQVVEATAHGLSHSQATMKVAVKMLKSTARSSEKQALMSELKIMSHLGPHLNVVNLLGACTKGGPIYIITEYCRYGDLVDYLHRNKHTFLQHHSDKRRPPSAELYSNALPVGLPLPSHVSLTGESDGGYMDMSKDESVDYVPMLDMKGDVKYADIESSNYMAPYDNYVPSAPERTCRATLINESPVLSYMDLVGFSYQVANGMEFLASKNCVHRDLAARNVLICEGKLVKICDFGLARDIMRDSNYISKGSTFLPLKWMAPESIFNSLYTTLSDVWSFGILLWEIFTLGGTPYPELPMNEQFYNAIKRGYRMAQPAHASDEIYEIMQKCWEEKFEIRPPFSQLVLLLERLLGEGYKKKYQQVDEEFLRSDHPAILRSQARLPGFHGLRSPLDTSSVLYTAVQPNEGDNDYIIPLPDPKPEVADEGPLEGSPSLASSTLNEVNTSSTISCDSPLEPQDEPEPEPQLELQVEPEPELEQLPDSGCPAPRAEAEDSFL
# UniProt Q15118, whole entry, looked up: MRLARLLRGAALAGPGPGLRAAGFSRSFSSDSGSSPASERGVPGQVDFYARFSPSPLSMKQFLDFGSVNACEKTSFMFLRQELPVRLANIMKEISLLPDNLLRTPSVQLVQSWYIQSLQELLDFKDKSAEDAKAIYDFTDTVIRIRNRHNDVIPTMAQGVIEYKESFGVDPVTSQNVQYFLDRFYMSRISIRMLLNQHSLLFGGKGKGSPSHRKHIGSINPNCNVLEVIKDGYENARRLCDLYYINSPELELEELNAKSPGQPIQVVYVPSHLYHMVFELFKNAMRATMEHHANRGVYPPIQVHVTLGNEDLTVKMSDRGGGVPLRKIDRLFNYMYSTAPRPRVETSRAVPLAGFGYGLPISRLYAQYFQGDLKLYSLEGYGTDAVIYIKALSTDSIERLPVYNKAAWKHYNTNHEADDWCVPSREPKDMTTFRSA
# UniProt Q13131: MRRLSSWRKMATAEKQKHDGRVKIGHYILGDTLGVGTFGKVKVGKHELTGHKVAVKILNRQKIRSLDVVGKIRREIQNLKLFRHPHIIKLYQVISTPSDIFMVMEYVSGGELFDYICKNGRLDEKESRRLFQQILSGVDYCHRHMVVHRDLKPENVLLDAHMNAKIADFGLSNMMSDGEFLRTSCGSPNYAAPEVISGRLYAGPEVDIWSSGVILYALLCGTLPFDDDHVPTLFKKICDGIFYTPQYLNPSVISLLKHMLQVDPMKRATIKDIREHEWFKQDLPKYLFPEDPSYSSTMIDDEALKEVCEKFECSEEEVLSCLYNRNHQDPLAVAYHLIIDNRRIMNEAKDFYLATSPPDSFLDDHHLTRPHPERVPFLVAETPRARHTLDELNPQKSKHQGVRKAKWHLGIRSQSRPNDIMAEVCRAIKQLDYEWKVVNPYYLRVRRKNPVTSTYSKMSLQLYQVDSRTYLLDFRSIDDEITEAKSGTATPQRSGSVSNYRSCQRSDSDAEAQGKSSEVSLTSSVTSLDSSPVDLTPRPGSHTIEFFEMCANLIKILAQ
# UniProt Q05397, whole entry, looked up: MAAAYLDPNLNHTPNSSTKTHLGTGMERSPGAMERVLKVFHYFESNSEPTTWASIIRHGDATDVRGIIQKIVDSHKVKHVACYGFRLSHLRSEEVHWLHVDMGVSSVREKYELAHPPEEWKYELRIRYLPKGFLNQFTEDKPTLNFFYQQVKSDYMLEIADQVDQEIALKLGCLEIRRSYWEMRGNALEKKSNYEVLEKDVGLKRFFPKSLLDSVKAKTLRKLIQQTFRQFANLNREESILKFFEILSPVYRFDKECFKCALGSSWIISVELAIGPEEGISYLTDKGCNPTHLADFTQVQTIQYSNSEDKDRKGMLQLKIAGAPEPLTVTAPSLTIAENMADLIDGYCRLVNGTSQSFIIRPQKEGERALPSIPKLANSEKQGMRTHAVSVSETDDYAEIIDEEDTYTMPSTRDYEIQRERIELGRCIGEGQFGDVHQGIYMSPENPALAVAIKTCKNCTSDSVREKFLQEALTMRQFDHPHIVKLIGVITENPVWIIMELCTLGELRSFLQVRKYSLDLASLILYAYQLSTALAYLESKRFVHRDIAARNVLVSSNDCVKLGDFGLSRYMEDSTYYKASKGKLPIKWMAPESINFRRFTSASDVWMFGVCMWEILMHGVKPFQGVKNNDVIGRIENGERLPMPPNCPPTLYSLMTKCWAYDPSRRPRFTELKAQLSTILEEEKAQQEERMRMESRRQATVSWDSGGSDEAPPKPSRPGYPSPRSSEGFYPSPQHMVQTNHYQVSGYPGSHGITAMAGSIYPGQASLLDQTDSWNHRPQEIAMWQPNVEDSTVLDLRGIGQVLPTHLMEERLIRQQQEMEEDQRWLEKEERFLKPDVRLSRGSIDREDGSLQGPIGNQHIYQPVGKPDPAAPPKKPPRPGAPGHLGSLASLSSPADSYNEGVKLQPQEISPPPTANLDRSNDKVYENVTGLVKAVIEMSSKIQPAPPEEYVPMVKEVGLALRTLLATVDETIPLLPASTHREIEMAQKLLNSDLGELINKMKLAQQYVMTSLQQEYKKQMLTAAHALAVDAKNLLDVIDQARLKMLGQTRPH
# Legend:
# Assay in all cases: kinase-Nluc reporter destabilization hit call (1 = scored as downregulated) (binary); higher = compound decreases kinase abundance
# Conditions in all cases: K562; 2-18 h
# MAPK1 = MAPK1 (UniProt P28482)
# MAPK4 = MAPK4 (UniProt P31152)
# MAPKAPK2 = MAPKAPK2 (UniProt P49137)
# MKNK1 = MKNK1 (UniProt Q9BUB5)
# NTRK2 = NTRK2 (UniProt Q16620)
# NTRK3 = NTRK3 (UniProt Q16288)
# PAK4 = PAK4 (UniProt O96013)
# PBK = PBK (UniProt Q96KB5)
# PDGFRB = PDGFRB (UniProt P09619)
# PDK1 = PDK1 (UniProt Q15118)
# PDPK1 = PDPK1 (UniProt O15530)
# PIK4CA = PIK4CA (UniProt P42356)
# PIK4CB = PIK4CB (UniProt Q9UBF8)
# PLK1 = PLK1 (UniProt P53350)
# PRKAA1 = PRKAA1 (UniProt Q13131)
# PRKCA = PRKCA (UniProt P17252)
# PTK2 = PTK2 (UniProt Q05397)
# PTK2B = PTK2B (UniProt Q14289)
# RAF1 = RAF1 (UniProt P04049)
# [1] = biological target: RAF1_S257L (clone: RAF1_mut) (UniProt P04049)
Structure (SMILES),kinase-Nluc reporter destabilization hit call (MAPK1),kinase-Nluc reporter destabilization hit call (MAPK4),kinase-Nluc reporter destabilization hit call (MAPKAPK2),kinase-Nluc reporter destabilization hit call (MKNK1),kinase-Nluc reporter destabilization hit call (NTRK2),kinase-Nluc reporter destabilization hit call (NTRK3),kinase-Nluc reporter destabilization hit call (PAK4),kinase-Nluc reporter destabilization hit call (PBK),kinase-Nluc reporter destabilization hit call (PDGFRB),kinase-Nluc reporter destabilization hit call (PDK1),kinase-Nluc reporter destabilization hit call (PDPK1),kinase-Nluc reporter destabilization hit call (PIK4CA),kinase-Nluc reporter destabilization hit call (PIK4CB),kinase-Nluc reporter destabilization hit call (PLK1),kinase-Nluc reporter destabilization hit call (PRKAA1),kinase-Nluc reporter destabilization hit call (PRKCA),kinase-Nluc reporter destabilization hit call (PTK2),kinase-Nluc reporter destabilization hit call (PTK2B),kinase-Nluc reporter destabilization hit call (RAF1),kinase-Nluc reporter destabilization hit call [1]
C[C@@H]1O[C@@H](O[C@@H]2[C@@H](O)[C@H](OCCc3ccc(O)c(O)c3)O[C@H](CO)[C@H]2OC(=O)/C=C/c2ccc(O)c(O)c2)[C@H](O)[C@H](O)[C@H]1O [Verbascoside] (10 µM),inactive: 0,inactive: 0,inactive: 0,inactive: 0,inactive: 0,inactive: 0,inactive: 0,inactive: 0,inactive: 0,inactive: 0,inactive: 0,inactive: 0,inactive: 0,inactive: 0,inactive: 0,inactive: 0,inactive: 0,inactive: 0,inactive: 0,inactive: 0
Cc1cnc(NC2CCOCC2)nc1-n1cnc(C(=O)N[C@H](CN)c2cc(F)cc(Cl)c2)c1 (10 µM),inactive: 0,inactive: 0,inactive: 0,inactive: 0,inactive: 0,inactive: 0,inactive: 0,inactive: 0,inactive: 0,inactive: 0,inactive: 0,inactive: 0,inactive: 0,inactive: 0,inactive: 0,inactive: 0,inactive: 0,inactive: 0,inactive: 0,inactive: 0
COc1cc2ncnc(Nc3ccc(F)c(Cl)c3)c2cc1NC(=O)/C=C/CN1CCCCC1 [Dacomitinib] (10 µM),inactive: 0,inactive: 0,inactive: 0,inactive: 0,inactive: 0,inactive: 0,inactive: 0,inactive: 0,inactive: 0,inactive: 0,inactive: 0,inactive: 0,inactive: 0,inactive: 0,inactive: 0,inactive: 0,inactive: 0,inactive: 0,inactive: 0,inactive: 0
COc1cc(N(C)CCN(C)C)c(N)cc1Nc1nccc(-c2cn(C)c3ccccc23)n1 [Mutated EGFR-IN-1] (10 µM),inactive: 0,inactive: 0,inactive: 0,inactive: 0,inactive: 0,inactive: 0,inactive: 0,inactive: 0,inactive: 0,inactive: 0,inactive: 0,inactive: 0,inactive: 0,inactive: 0,inactive: 0,inactive: 0,inactive: 0,inactive: 0,inactive: 0,active: 1
C=CC(=O)N1C[C@H](COc2nc(Nc3cnn(C)c3)nc3[nH]cc(Cl)c23)[C@@H](OC)C1 (2.5 µM),inactive: 0,inactive: 0,inactive: 0,inactive: 0,inactive: 0,inactive: 0,inactive: 0,inactive: 0,inactive: 0,inactive: 0,inactive: 0,inactive: 0,inactive: 0,inactive: 0,inactive: 0,inactive: 0,inactive: 0,inactive: 0,inactive: 0,inactive: 0
C[C@H](Nc1ncnc2[nH]cnc12)c1cc2ccc(F)cc2nc1-c1ccccn1 (10 µM),inactive: 0,inactive: 0,inactive: 0,inactive: 0,inactive: 0,inactive: 0,inactive: 0,inactive: 0,inactive: 0,inactive: 0,inactive: 0,inactive: 0,inactive: 0,inactive: 0,inactive: 0,inactive: 0,inactive: 0,inactive: 0,inactive: 0,inactive: 0
COc1ccc(-c2c(C)nn3c(NCCN4CCOCC4)cc(C)nc23)cc1OC (10 µM),inactive: 0,inactive: 0,inactive: 0,inactive: 0,inactive: 0,inactive: 0,inactive: 0,inactive: 0,inactive: 0,inactive: 0,inactive: 0,inactive: 0,inactive: 0,inactive: 0,inactive: 0,inactive: 0,inactive: 0,inactive: 0,inactive: 0,inactive: 0
CC(C)CNc1ccnc(NCc2csc(-c3ccccc3)n2)n1 [KHS101 hydrochloride] (2.5 µM),inactive: 0,inactive: 0,inactive: 0,inactive: 0,inactive: 0,inactive: 0,inactive: 0,inactive: 0,inactive: 0,inactive: 0,inactive: 0,inactive: 0,inactive: 0,inactive: 0,inactive: 0,inactive: 0,inactive: 0,inactive: 0,inactive: 0,inactive: 0
CC1(C)Cc2c(sc(NC(=S)NC(=O)c3ccccc3)c2C(=O)O)CO1 (10 µM),inactive: 0,inactive: 0,inactive: 0,inactive: 0,inactive: 0,inactive: 0,inactive: 0,inactive: 0,inactive: 0,inactive: 0,inactive: 0,inactive: 0,inactive: 0,inactive: 0,inactive: 0,inactive: 0,inactive: 0,inactive: 0,inactive: 0,inactive: 0
O=C(Nc1cccc(C(F)(F)F)c1)c1cccc2cc(Oc3cc(CO)ncn3)ccc12 (10 µM),inactive: 0,inactive: 0,inactive: 0,inactive: 0,inactive: 0,inactive: 0,inactive: 0,inactive: 0,inactive: 0,inactive: 0,inactive: 0,inactive: 0,inactive: 0,inactive: 0,inactive: 0,inactive: 0,inactive: 0,inactive: 0,inactive: 0,inactive: 0
CN(C)S(=O)(=O)c1ccc2c(c1)/C(=C/c1cc3c([nH]1)CCCC3)C(=O)N2 (2.5 µM),inactive: 0,inactive: 0,inactive: 0,inactive: 0,inactive: 0,inactive: 0,inactive: 0,inactive: 0,inactive: 0,inactive: 0,inactive: 0,inactive: 0,inactive: 0,inactive: 0,inactive: 0,inactive: 0,inactive: 0,inactive: 0,inactive: 0,inactive: 0
COCCNc1cc(NC(=O)N2CCCc3cc(CN4CCN(C)CC4=O)c(C=O)nc32)ncc1C#N [Roblitinib] (10 µM),inactive: 0,inactive: 0,inactive: 0,inactive: 0,inactive: 0,inactive: 0,inactive: 0,inactive: 0,inactive: 0,inactive: 0,inactive: 0,inactive: 0,inactive: 0,inactive: 0,inactive: 0,inactive: 0,inactive: 0,inactive: 0,inactive: 0,inactive: 0
COc1cc(/C=C/C(=O)N2CCC=CC2=O)cc(OC)c1OC [Piperlongumine] (2.5 µM),inactive: 0,inactive: 0,inactive: 0,inactive: 0,inactive: 0,inactive: 0,inactive: 0,inactive: 0,inactive: 0,inactive: 0,inactive: 0,inactive: 0,active: 1,inactive: 0,inactive: 0,inactive: 0,inactive: 0,inactive: 0,inactive: 0,active: 1
c1ccc(-c2nc3c(c(-n4ccc5cnccc54)n2)CCC3)nc1 (10 µM),inactive: 0,inactive: 0,inactive: 0,inactive: 0,inactive: 0,inactive: 0,inactive: 0,inactive: 0,inactive: 0,inactive: 0,inactive: 0,inactive: 0,inactive: 0,inactive: 0,inactive: 0,inactive: 0,inactive: 0,inactive: 0,inactive: 0,inactive: 0
Nc1nccc(Oc2ccc(NC(=O)c3c[nH]cc(-c4ccc(F)cc4)c3=O)cc2F)c1Cl (10 µM),inactive: 0,inactive: 0,inactive: 0,inactive: 0,inactive: 0,inactive: 0,inactive: 0,inactive: 0,inactive: 0,inactive: 0,inactive: 0,inactive: 0,inactive: 0,inactive: 0,inactive: 0,inactive: 0,inactive: 0,inactive: 0,inactive: 0,inactive: 0
O=C1NC(=O)C(c2cnc3ccccn23)=C1c1cn2c3c(cc(F)cc13)CNCC2 [GSK-3 inhibitor 1] (2.5 µM),inactive: 0,inactive: 0,inactive: 0,inactive: 0,inactive: 0,inactive: 0,inactive: 0,inactive: 0,inactive: 0,inactive: 0,inactive: 0,inactive: 0,inactive: 0,inactive: 0,inactive: 0,inactive: 0,inactive: 0,inactive: 0,inactive: 0,inactive: 0
CC[C@@](C)(Nc1ccnc(-c2c[nH]c3ncccc23)n1)C(=O)NCC(F)(F)F [Decernotinib] (10 µM),inactive: 0,inactive: 0,inactive: 0,inactive: 0,inactive: 0,inactive: 0,inactive: 0,inactive: 0,inactive: 0,inactive: 0,inactive: 0,inactive: 0,inactive: 0,inactive: 0,inactive: 0,inactive: 0,inactive: 0,inactive: 0,inactive: 0,inactive: 0
c1ccc(-c2nc(=NCCN3CCOCC3)sn2-c2ccccc2)cc1 [VP3.15 (dihydrobromide)] (10 µM),inactive: 0,inactive: 0,inactive: 0,inactive: 0,inactive: 0,inactive: 0,inactive: 0,inactive: 0,inactive: 0,inactive: 0,inactive: 0,inactive: 0,inactive: 0,inactive: 0,inactive: 0,inactive: 0,inactive: 0,inactive: 0,inactive: 0,inactive: 0

# Full records from above. Order of values: kinase-Nluc reporter destabilization hit call (MAPK1) | kinase-Nluc reporter destabilization hit call (MAPK4) | kinase-Nluc reporter destabilization hit call (MAPKAPK2) | kinase-Nluc reporter destabilization hit call (MKNK1) | kinase-Nluc reporter destabilization hit call (NTRK2) | kinase-Nluc reporter destabilization hit call (NTRK3) | kinase-Nluc reporter destabilization hit call (PAK4) | kinase-Nluc reporter destabilization hit call (PBK) | kinase-Nluc reporter destabilization hit call (PDGFRB) | kinase-Nluc reporter destabilization hit call (PDK1) | kinase-Nluc reporter destabilization hit call (PDPK1) | kinase-Nluc reporter destabilization hit call (PIK4CA) | kinase-Nluc reporter destabilization hit call (PIK4CB) | kinase-Nluc reporter destabilization hit call (PLK1) | kinase-Nluc reporter destabilization hit call (PRKAA1) | kinase-Nluc reporter destabilization hit call (PRKCA) | kinase-Nluc reporter destabilization hit call (PTK2) | kinase-Nluc reporter destabilization hit call (PTK2B) | kinase-Nluc reporter destabilization hit call (RAF1) | kinase-Nluc reporter destabilization hit call [1]
# O=C1NC(=O)C(c2cnc3ccccn23)=C1c1cn2c3c(cc(F)cc13)CNCC2 [GSK-3 inhibitor 1] (2.5 µM) in the list: inactive: 0 | inactive: 0 | inactive: 0 | inactive: 0 | inactive: 0 | inactive: 0 | inactive: 0 | inactive: 0 | inactive: 0 | inactive: 0 | inactive: 0 | inactive: 0 | inactive: 0 | inactive: 0 | inactive: 0 | inactive: 0 | inactive: 0 | inactive: 0 | inactive: 0 | inactive: 0
# C=CC(=O)N1C[C@H](COc2nc(Nc3cnn(C)c3)nc3[nH]cc(Cl)c23)[C@@H](OC)C1 (2.5 µM) in the list: inactive: 0 | inactive: 0 | inactive: 0 | inactive: 0 | inactive: 0 | inactive: 0 | inactive: 0 | inactive: 0 | inactive: 0 | inactive: 0 | inactive: 0 | inactive: 0 | inactive: 0 | inactive: 0 | inactive: 0 | inactive: 0 | inactive: 0 | inactive: 0 | inactive: 0 | inactive: 0

# Source: the supplement of paper PMC12823440, “Inhibitors supercharge kinase turnover through native proteolytic circuits” (Nature, 2025)
